According to the supplement of paper PMC2577665:
± gives the standard deviation of the averaged measurements. The data scatter; read single values as rough.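 Each test well overexpressed one poorly characterized human cDNA in ERalpha-negative HeLa cells together with transfected ERalpha and a reporter carrying two estrogen response elements. A gene counted as a repressor hit if it cut the signal to the level of the BRCA1 positive control (about 0.6 of empty vector) or lower.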

What follows are sequences tested on ERE-luciferase reporter with exogenous ERalpha in HeLa cells (assay: relative ERE luciferase activity (Firefly/Renilla) upon cDNA overexpression, relative to empty vector (fold of empty vector); higher = stronger ERalpha transactivation (less repression)). Details: 17beta-estradiol: 10 nM; 12 h.
In the case of “MAREPRKNAALDAQSAEDQTGLLTVKVEKEEASALTAEVRAPCSPARGPERSRQRFRGFRYPEAAGPREALSRLRELCGQWLQPEMHSKEQILELLVLEQFLTILPGNLQSWVREQHPESGEEVVVLLEYLERQLDEPAPQVPVGDQGQELLCCKMALLTQTQGSQSSQCQPMKALFKHESLGSQPLHDRVLQVPGLAQGGCCREDAMVASRLTPGSQGLLKMEDVALTLTPGWTQLDSSQVNLYRDEKQENHSSLVSLGGEIQTKSRDLPPVKKLPEKEHGKICHLREDIAQIPTHAEAGEQEGRLQRKQKNAIGSRRHYCHECGKSFAQSSGLTKHRRIHTGEKPYECEDCGKTFIGSSALVIHQRVHTGEKPYECEECGKVFSHSSNLIKHQRTHTGEKPYECDDCGKTFSQSCSLLEHHKIHTGEKPYQCNMCGKAFRRNSHLLRHQRIHGDKNVQNPEHGESWESQGRTESQWENTEAPVSYKCNECERSFTRNRSLIEHQKIHTGEKPYQCDTCGKGFTRTSYLVQHQRSHVGKKTLSQ [ZKSCAN4]”, the “relative ERE luciferase activity” value is reported as 1.0461 ± 0.00043.
With “MARPDPSAPPSLLLLLLAQLVGRAAAASKAPVCQEITVPMCRGIGYNLTHMPNQFNHDTQDEAGLEVHQFWPLVEIQCSPDLRFFLCSMYTPICLPDYHKPLPPCRSVCERAKAGCSPLMRQYGFAWPERMSCDRLPVLGRDAEVLCMDYNRSEATTAPPRPFPAKPTLPGPPGAPASGGECPAGGPFVCKCREPFVPILKESHPLYNKVRTGQVPNCAVPCYQPSFSADERTFATFWIGLWSVLCFISTSTTVATFLIDMERFRYPERPIIFLSACYLCVSLGFLVRLVVGHASVACSREHNHIHYETTGPALCTIVFLLVYFFGMASSIWWVILSLTWFLAAGMKWGNEAIAGYAQYFHLAAWLIPSVKSITALALSSVDGDPVAGICYVGNQNLNSLRGFVLGPLVLYLLVGTLFLLAGFVSLFRIRSVIKQGGTKTDKLEKLMIRIGIFTLLYTVPASIVVACYLYEQHYRESWEAALTCACPGHDTGQPRAKPEYWVLMLKYFMCLVVGITSGVWIWSGKTVESWRRFTSRCCCRPRRGHKSGGAMAAGDYPEASAALTGRTGPPGPAATYHKQVSLSHV [FZD5]” the “relative ERE luciferase activity” value was 1.03.
In the case of “MARRRRRACIALFLVLLFAFGTLMGLRTLKAPDGLPALGPGLELAPFERRPEGAPAPAARAPAAPAAPPPPPPPPRTADPGGSPGPAPAEAEPAPVQSLRVYSDLHAFYYSWYGSPRREGHYIHWDHVMVPHWDPKISASYPRGRHSPPDDLGSSFYPELGPYSSRDPEVLREHMTQLKEAAIGVLVLSWYPPGMADDNGEPSDDLVPAILDTAHQYSIQVAFHIQPYKGRDDITVHDNIKYIIDTYGSHGAFYRYKNSMGKSLPLFYIYDSYLTSPEAWAHLLTPNGPHSIRNTPYDGVFIALLVEEGHTHDILAAGFDGMYTYFASNGFSFGSSHQNWKAVKNFCDANNLMFIPSVGPGYIDTSIRPWNNHNTRNRVNGKYYETALQAALTVRPEIVSITSFNEWHEGTQIEKAIPKKTPTRLYLDYLPHQPSLYLELTRRWAEHFIKEKEQWLM [MANEAL]”, the “relative ERE luciferase activity” value is reported as 1.22 ± 0.051.
For “MASADSRRVADGGGAGGTFQPYLDTLRQELQQTDPTLLSVVVAVLAVLLTLVFWKLIRSRRSSQRAVLLVGLCDSGKTLLFVRLLTGLYRDTQTSITDSCAVYRVNNNRGNSLTLIDLPGHESLRLQFLERFKSSARAIVFVVDSAAFQREVKDVAEFLYQVLIDSMGLKNTPSFLIACNKQDIAMAKSAKLIQQQLEKELNTLRVTRSAAPSTLDSSSTAPAQLGKKGKEFEFSQLPLKVEFLECSAKGGRGDVGSADIQDLEKWLAKIA [SRPRB]”, the “relative ERE luciferase activity” value was 1.14.
For “MASLQRKGLQARILTSEEEEKLKRDQTLVSDFKQQKLEQEAQKNWDLFYKRNSTNFFKDRHWTTREFEELRSCREFEDQKLTMLEAGCGVGNCLFPLLEEDPNIFAYACDFSPRAIEYVKQNPLYDTERCKVFQCDLTKDDLLDHVPPESVDVVMLIFVLSAVHPDKMHLVLQNIYKVLKPGKSVLFRDYGLYDHAMLRFKASSKLGENFYVRQDGTRSYFFTDDFLAQLFMDTGYEEVVNEYVFRETVNKKEGLCVPRVFLQSKFLKPPKNPSPVVLGLDPKS [METTL6]”, the “relative ERE luciferase activity” value was 1.03.
“MASMPPTPEAQGPILFEDLAVYFSQEECVTLHPAQRSLSKDGTKESLEDAALMGEEGKPEINQQLSLESMELDELALEKYPIAAPLVPYPEKSSEDGVGNPEAKILSGTPTYKRRVISLLVTIENHTPLVELSEYLGTNTLSEILDSPWEGAKNVYKCPECDQNFSDHSYLVLHQKIHSGEKKHKCGDCGKIFNHRANLRTHRRIHTGEKPYKCAKCSASFRQHSHLSRHMNSHVKEKPYTCSICGRGFMWLPGLAQHQKSHSAENTYESTNCDKHFNEKPNLALPEETFVSGPQYQHTKCMKSFRQSLYPALSEKSHDEDSERCSDDGDNFFSFSKFKPLQCPDCDMTFPCFSELISHQNIHTEERPHKCKTCEESFALDSELACHQKSHMLAEPFKCTVCGKTFKSNLHLITHKRTHIKNTT [ZNF597]” was tested, and the “relative ERE luciferase activity” value was 1.18.
“MASPAPPEHAEEGCPAPAAEEQAPPSPPPPQASPAERQQQEEEAQEAGAAEGAGLQVEEAAGRAAAAVTWLLGEPVLWLGCRADELLSWKRPLRSLLGFVAANLLFWFLALTPWRVYHLISVMILGRVIMQIIKDMVLSRTRGAQLWRSLSESWEVINSKPDERPRLSHCIAESWMNFSIFLQEMSLFKQQSPGKFCLLVCSVCTFFTILGSYIPGVILSYLLLLCAFLCPLFKCNDIGQKIYSKIKSVLLKLDFGIGEYINQKKRERSEADKEKSHKDDSELDFSALCPKISLTVAAKELSVSDTDVSEVSWTDNGTFNLSEGYTPQTDTSDDLDRPSEEVFSRDLSDFPSLENGMGTNDEDELSLGLPTELKRKKEQLDSGHRPSKETQSAAGLTLPLNSDQTFHLMSNLAGDVITAAVTAAIKDQLEGVQQALSQAAPIPEEDTDTEEGDDFELLDQSELDQIESELGLTQDQEAEAQQNKKSSGFLSNLLGGH [FAM134B]” was tested, and the “relative ERE luciferase activity” value was 1.23.
“MATEAPVNIAPPECSTVVSTAVDSLIWQPNSLNMHMIRPKSAKGRTRPSLQKSQGVEVCAHHIPSPPPAIPYELPSSQKPGACAPKSPNQGASDEIPELQQQVPTGASSSLNKYPVLPSINRKNLEEEAVETVAKKASSLQLSSIRALYQDETGTMKTSEEDSRARACAVERKFIVRTKKQGSSRAGNLEEPSDQEPRLLLAVRSPTGQRFVRHFRPTDDLQTIVAVAEQKNKTSYRHCSIETMEVPRRRFSDLTKSLQECRIPHKSVLGISLEDGEGWP [UBXD3]” was tested, and the “relative ERE luciferase activity” value was 1.
“MATKPTEPVTILSLRKLSLGTAEPQVKEPKTFTVEDAVETIGFGRFHIALFLIMGSTGVVEAMEIMLIAVVSPVIRCEWQLENWQVALVTTMVFFGYMVFSILFGLLADRYGRWKILLISFLWGAYFSLLTSFAPSYIWFVFLRTMVGCGVSGHSQGLIIKTEFLPTKYRGYMLPLSQVFWLAGSLLIIGLASVIIPTIGWRWLIRVASIPGIILIVAFKFIPESARFNVSTGNTRAALATLERVAKMNRSVMPEGKLVEPVLEKRGRFADLLDAKYLRTTLQIWVIWLGISFAYYGVILASAELLERDLVCGSKSDSAVVVTGGDSGESQSPCYCHMFAPSDYRTMIISTIGEIALNPLNILGINFLGRRLSLSITMGCTALFFLLLNICTSSAGLIGFLFMLRALVAANFNTVYIYTAEVYPTTMRALGMGTSGSLCRIGAMVAPFISQVLMSASILGALCLFSSVCVVCAISAFTLPIETKGRALQQIK [SVOPL]” was tested, and the “relative ERE luciferase activity” value was 1.14.
For “MATLARLQARSSTVGNQYYFRNSVVDPFRKKENDAAVKIQSWFRGCQVRAYIRHLNRIVTIIQKWWRSFLGRKQYQLTVQVAYYTMMMNLYNAMAVRIQRRWRGYRVRKYLFNYYYLKEYLKVVSETNDAIRKALEEFAEMKEREEKKANLEREEKKRDYQARKMHYLLSTKQIPGIYNSPFRKEPDPWELQLQKAKPLTHRRPKVKQKDSTSLTDWLACTSARSFPRSEILPPINRKQCQGPFRDITEVLEQRYRPLEPTLRVAEPIDELKLAREELRREEWLQNVNDNMFLPFSSYHKNEKYIPSMHLSSKYGPISYKEQFRSENPKKWICDKDFQTVLPSFELFSKYGKLYSKAGQIV [SPATA17]”, the “relative ERE luciferase activity” value was 1.03.
With “MAVPAKKRKMNFSEREVEIIVEELELKKHLLVNHFNAGVPLAAKSAAWHGILRRVNAVATCRRELPEVKKKWSDLKTEVRRKVAQVRAAVEGGEAPGPTEEDGAGGPGTGGGSGGGGPAVAPVLLTPMQQRICNLLGEATIISLPSTTEIHPVALGPSATAAAATVTLTQIPTETTYHTLEEGVVEYCTAEAPPPLPPETPVDMMAQHADTSVKPQALKSRIALNSAKLIQEQRVTNLHVKEIAQHLEQQNDLLQMIRRSQEVQACAQERQAQAMEGTQAALSVLIQVLRPMIKDFRRYLQSNTANPAPASDPGQVAQNGQPDSIIQ [C9orf90]” the “relative ERE luciferase activity” value was 1.22.
In the case of “MCVRRSLVGLTFCTCYLASYLTNKYVLSVLKFTYPTLFQGWQTLIGGLLLHVSWKLGWVEINSSSRSHVLVWLPASVLFVGIIYAGSRALSRLAIPVFLTLHNVAEVIICGYQKCFQKEKTSPAKICSALLLLAAAGCLPFNDSQFNPDGYFWAIIHLLCVGAYKILQKSQKPSALSDIDQQYLNYIFSVVLLAFASHPTGDLFSVLDFPFLYFYRFHGSCCASGFLGFFLMFSTVKLKNLLAPGQCAAWIFFAKIITAGLSILLFDAILTSATTGCLLLGALGEALLVFSERKSS [C18orf45]”, the “relative ERE luciferase activity” value is reported as 1.11.
For “MDAGKAGQTLKTHCSAQRPDVCRWLSPFILSCCVYFCLWIPEDQLSWFAALVKCLPVLCLAGFLWVMSPSGGYTQLLQGALVCSAVGDACLIWPAAFVPGMAAFATAHLLYVWAFGFSPLQPGLLLLIILAPGPYLSLVLQHLEPDMVLPVAAYGLILMAMLWRGLAQGGSAGWGALLFTLSDGVLAWDTFAQPLPHAHLVIMTTYYAAQLLITLSALRSPVPKTD [TMEM86B]”, the “relative ERE luciferase activity” value was 1.12.
In the case of “MDDPKSEQQRILRRHQRERQELQAQIRSLKNSVPKTDKTKRKQLLQDVARMEAEMAQKHRQELEKFQDDSSIESVVEDLAKMNLENRPPRSSKAHRKRERMESEERERQESIFQAEMSEHLAGFKREEEEKLAAILGARGLEMKAIPADGHCMYRAIQDQLVFSVSVEMLRCRTASYMKKHVDEFLPFFSNPETSDSFGYDDFMIYCDNIVRTTAWGGQLELRALSHVLKTPIEVIQADSPTLIIGEEYVKKPIILVYLRYAYSLGEHYNSVTPLEAGAAGGVLPRLL [OTUD6A]”, the “relative ERE luciferase activity” value is reported as 2.63.
In the case of “MDDREDLVYQAKLAEQAERYDEMVESMKKVAGMDVELTVEERNLLSVAYKNVIGARRASWRIISSIEQKEENKGGEDKLKMIREYRQMVETELKLICCDILDVLDKHLIPAANTGESKVFYYKMKGDYHRYLAEFATGNDRKEAAENSLVAYKAASDIAMTELPPTHPIRLGLALNFSVFYYEILNSPDRACRLAKAAFDDAIAELDTLSEESYKDSTLIMQLLRDNLTLWTSDMQGDGEEQNKEALQDVEDENQ [YWHAE]”, the “relative ERE luciferase activity” value is reported as 1.02.
“MDETQGPLAMTVHLLANSGHGSLLQRTLDQLLDCICPEVRLFQVSERASPVKYCEKSHSKRSRFPGMSVLLFLHESPGEDRLFRVLDSLQHSPWQCYPTQDTRGRLCPYFFANQEFYSLDSQLPIWGVRQVHCGSEILRVTLYCSFDNYEDAIRLYEMILQREATLQKSNFCFFVLYASKSFALQLSLKQLPPGMSVDPKESSVLQFKVQEIGQLVPLLPNPCMPISSTRWQTQDYDGNKILLQVQLNPELGVKNGILGAGMLPLGSRLTSVSAKRTSEPRSQRNQGKRSQGHSLELPEPSGSPTSDRCAGTSWKSPGRSFQVSSPAMGAHLHLSSHHLESGARMKVLNRENSFQKLEAETNVDTGLTIINSEPRQTYFGGFPRDLQTSQPPFCLPASSLGVATSKNNSVLKERVSPLPLAGQRDLGTRKTISECLLHLQVQGEEKEEDEEEFFI [FAM124B]” was tested, and the “relative ERE luciferase activity” value was 1.18 ± 0.12.
